Three molecules from paper PMC6291157 can be followed below.

Amino acid sequences for entries named in this document (tags omitted).
UniProt Q13200: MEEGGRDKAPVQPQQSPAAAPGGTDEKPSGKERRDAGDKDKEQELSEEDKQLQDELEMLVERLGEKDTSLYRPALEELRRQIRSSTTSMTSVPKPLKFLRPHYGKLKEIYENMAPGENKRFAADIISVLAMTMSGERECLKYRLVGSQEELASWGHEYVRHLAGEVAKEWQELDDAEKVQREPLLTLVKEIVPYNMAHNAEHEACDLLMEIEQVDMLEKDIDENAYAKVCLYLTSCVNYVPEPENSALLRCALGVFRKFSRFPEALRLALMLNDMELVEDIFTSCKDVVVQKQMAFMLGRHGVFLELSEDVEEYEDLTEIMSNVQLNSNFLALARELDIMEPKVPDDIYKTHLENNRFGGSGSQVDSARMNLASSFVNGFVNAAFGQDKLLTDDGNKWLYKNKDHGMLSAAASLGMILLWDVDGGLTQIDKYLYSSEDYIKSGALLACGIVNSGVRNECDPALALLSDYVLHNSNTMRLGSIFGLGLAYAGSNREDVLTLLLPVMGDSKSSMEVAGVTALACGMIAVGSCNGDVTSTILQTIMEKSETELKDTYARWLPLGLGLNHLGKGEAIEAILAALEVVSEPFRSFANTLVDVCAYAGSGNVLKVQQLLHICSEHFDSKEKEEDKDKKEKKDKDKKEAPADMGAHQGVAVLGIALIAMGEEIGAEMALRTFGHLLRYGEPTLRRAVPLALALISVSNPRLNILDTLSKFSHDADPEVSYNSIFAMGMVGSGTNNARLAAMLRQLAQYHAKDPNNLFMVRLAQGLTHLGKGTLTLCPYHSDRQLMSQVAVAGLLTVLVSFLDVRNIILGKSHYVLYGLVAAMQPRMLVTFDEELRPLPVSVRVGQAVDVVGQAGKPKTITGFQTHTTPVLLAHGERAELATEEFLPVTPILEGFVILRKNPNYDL
UniProt Q8N371: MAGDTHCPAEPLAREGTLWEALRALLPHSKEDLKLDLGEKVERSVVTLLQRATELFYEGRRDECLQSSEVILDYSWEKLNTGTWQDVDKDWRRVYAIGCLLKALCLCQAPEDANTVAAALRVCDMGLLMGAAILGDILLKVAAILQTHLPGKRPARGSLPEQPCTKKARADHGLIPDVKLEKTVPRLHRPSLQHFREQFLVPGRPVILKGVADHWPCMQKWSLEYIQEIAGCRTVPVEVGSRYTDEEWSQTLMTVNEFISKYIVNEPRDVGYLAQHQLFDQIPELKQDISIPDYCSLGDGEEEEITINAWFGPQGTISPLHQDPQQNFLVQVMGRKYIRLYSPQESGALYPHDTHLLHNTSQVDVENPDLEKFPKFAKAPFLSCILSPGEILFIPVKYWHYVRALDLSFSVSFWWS

The target of assay [1] is T1, V5-FBXL3 (F-box/leucine-rich repeat protein 3) (UniProt Q9UKT7).
T1 sequence: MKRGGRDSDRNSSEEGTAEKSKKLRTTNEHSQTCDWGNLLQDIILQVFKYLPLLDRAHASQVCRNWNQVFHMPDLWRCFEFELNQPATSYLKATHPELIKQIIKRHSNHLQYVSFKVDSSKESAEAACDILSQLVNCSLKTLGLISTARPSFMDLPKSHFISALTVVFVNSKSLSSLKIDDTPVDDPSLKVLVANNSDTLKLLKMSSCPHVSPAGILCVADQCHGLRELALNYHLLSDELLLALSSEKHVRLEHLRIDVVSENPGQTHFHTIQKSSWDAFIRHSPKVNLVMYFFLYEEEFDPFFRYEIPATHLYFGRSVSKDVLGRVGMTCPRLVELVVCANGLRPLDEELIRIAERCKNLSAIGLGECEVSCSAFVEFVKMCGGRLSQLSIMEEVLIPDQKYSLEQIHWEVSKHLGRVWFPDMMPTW
The assay can be described thus: co-IP; HEK293T cotransfected with FLAG-CRY1, HA-JMJD5, V5-FBXL3 and shRNA against CRY1; which protein was precipitated is not told.

Assay [2] concerns the target T2, FLAG-CRY2 (CRYPTOCHROME 2) (UniProt Q9R194).
T2 sequence: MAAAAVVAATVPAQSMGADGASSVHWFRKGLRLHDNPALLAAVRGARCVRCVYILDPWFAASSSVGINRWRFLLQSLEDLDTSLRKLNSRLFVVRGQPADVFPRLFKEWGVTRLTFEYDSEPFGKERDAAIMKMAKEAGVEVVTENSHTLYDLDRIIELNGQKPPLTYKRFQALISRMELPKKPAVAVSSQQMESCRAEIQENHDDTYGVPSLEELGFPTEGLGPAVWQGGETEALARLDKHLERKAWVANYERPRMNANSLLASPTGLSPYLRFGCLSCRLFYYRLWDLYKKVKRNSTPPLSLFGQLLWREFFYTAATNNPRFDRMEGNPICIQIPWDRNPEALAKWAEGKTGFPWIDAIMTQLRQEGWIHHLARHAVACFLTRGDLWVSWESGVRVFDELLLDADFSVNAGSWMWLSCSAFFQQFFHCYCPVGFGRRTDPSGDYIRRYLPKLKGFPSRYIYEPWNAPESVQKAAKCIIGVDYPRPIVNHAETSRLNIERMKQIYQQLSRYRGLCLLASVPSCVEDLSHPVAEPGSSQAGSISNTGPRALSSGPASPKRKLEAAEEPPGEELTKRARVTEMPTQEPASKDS
The assay can be described thus: co-IP; HEK293T cotransfected (1.5 ug V5-FBXL3, 400 ng FLAG-CRY1, 600 ng HA-JMJD5); lysis in 200 mM NaCl, 50 mM Tris-HCl, 1% TX-100, 1% NP-40; FLAG-tagged CRY precipitated on M2 FLAG magnetic beads overnight at 4 °C, eluted with 3X FLAG peptide, immunoblot; with or without coexpressed FBXL3; also with shRNA against FBXL3 or siRNA against JMJD5.

The target of assay [3] is T3, FLAG-CRY1 (CRYPTOCHROME 1, wild type) (UniProt P97784).
T3 sequence: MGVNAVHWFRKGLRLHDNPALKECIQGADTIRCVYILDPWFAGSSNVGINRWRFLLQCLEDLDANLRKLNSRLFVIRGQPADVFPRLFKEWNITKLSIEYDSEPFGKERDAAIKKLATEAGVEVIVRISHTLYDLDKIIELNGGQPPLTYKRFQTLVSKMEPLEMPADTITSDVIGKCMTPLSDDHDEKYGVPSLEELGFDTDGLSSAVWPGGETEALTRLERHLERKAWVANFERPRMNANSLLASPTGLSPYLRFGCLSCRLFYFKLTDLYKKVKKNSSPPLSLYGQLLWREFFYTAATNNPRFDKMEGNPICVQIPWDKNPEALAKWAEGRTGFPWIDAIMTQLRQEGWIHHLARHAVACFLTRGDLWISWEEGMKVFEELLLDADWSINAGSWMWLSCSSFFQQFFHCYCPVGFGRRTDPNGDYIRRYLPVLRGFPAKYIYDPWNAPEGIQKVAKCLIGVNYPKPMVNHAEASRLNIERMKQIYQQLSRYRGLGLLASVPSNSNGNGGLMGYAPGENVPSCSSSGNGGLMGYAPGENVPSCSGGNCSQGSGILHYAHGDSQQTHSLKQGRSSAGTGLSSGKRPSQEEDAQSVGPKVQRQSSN
The assay is described as above.

The target in assay [4] is HA-RPN1 (19S proteasome regulatory particle non-ATPase 1) (UniProt Q13200). The experiment in a line: co-IP; Jmjd5+/+ and Jmjd5-/- MEFs transfected with HA-RPN1; lysis in 400 mM NaCl, 50 mM Tris-HCl, 1% TX-100, 0.25% sodium deoxycholate; anti-HA antibody on protein G beads, 1 hour at 4 °C; blot for endogenous CRY1.

These are yes or no findings as the source states them, for the method shown. Binding seen in cells or lysates may run through a third protein. Some entries that bind do so weakly or less than the wild type. For some of these results: Tags and fused reporters may be left off the sequences shown.

Regarding “HA-JMJD5 (JmjC domain-containing protein 5) (from UniProt Q8N371 1-416)”, the binding result in assay [1] is “binds”; in assay [2], “no binding”.

B1: V5-FBXL3 (F-box/leucine-rich repeat protein 3) (protein, UniProt Q9UKT7 1-428)
chain: MKRGGRDSDRNSSEEGTAEKSKKLRTTNEHSQTCDWGNLLQDIILQVFKYLPLLDRAHASQVCRNWNQVFHMPDLWRCFEFELNQPATSYLKATHPELIKQIIKRHSNHLQYVSFKVDSSKESAEAACDILSQLVNCSLKTLGLISTARPSFMDLPKSHFISALTVVFVNSKSLSSLKIDDTPVDDPSLKVLVANNSDTLKLLKMSSCPHVSPAGILCVADQCHGLRELALNYHLLSDELLLALSSEKHVRLEHLRIDVVSENPGQTHFHTIQKSSWDAFIRHSPKVNLVMYFFLYEEEFDPFFRYEIPATHLYFGRSVSKDVLGRVGMTCPRLVELVVCANGLRPLDEELIRIAERCKNLSAIGLGECEVSCSAFVEFVKMCGGRLSQLSIMEEVLIPDQKYSLEQIHWEVSKHLGRVWFPDMMPTW
Turning to B1, in assay [3], the binding result is listed as “binds”.

B2: endogenous CRY1 (CRYPTOCHROME 1) of mouse embryo fibroblasts (protein, UniProt P97784 1-606)
chain: MGVNAVHWFRKGLRLHDNPALKECIQGADTIRCVYILDPWFAGSSNVGINRWRFLLQCLEDLDANLRKLNSRLFVIRGQPADVFPRLFKEWNITKLSIEYDSEPFGKERDAAIKKLATEAGVEVIVRISHTLYDLDKIIELNGGQPPLTYKRFQTLVSKMEPLEMPADTITSDVIGKCMTPLSDDHDEKYGVPSLEELGFDTDGLSSAVWPGGETEALTRLERHLERKAWVANFERPRMNANSLLASPTGLSPYLRFGCLSCRLFYFKLTDLYKKVKKNSSPPLSLYGQLLWREFFYTAATNNPRFDKMEGNPICVQIPWDKNPEALAKWAEGRTGFPWIDAIMTQLRQEGWIHHLARHAVACFLTRGDLWISWEEGMKVFEELLLDADWSINAGSWMWLSCSSFFQQFFHCYCPVGFGRRTDPNGDYIRRYLPVLRGFPAKYIYDPWNAPEGIQKVAKCLIGVNYPKPMVNHAEASRLNIERMKQIYQQLSRYRGLGLLASVPSNSNGNGGLMGYAPGENVPSCSSSGNGGLMGYAPGENVPSCSGGNCSQGSGILHYAHGDSQQTHSLKQGRSSAGTGLSSGKRPSQEEDAQSVGPKVQRQSSN
For the molecule B2, the binding result in assay [4] was “binds”.
